# The supplement of paper PMC10849652
# Sequences of proteins named here, by UniProt entry; tags and fusion partners are left off. A change or cut given only in a name is not applied to a line headed by its entry.
# UniProt Q9Y6I7: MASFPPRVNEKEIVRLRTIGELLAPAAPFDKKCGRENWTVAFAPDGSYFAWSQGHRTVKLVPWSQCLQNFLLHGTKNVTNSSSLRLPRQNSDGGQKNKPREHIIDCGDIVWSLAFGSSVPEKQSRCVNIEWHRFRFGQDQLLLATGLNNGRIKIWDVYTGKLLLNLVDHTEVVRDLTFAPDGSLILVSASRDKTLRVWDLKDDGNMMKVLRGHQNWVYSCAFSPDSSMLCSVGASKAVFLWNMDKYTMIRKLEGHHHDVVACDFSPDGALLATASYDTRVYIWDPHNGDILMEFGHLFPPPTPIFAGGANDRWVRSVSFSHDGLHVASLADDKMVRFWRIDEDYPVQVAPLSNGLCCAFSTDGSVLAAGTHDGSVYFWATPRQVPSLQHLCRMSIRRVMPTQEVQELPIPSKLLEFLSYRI
# UniProt Q01831: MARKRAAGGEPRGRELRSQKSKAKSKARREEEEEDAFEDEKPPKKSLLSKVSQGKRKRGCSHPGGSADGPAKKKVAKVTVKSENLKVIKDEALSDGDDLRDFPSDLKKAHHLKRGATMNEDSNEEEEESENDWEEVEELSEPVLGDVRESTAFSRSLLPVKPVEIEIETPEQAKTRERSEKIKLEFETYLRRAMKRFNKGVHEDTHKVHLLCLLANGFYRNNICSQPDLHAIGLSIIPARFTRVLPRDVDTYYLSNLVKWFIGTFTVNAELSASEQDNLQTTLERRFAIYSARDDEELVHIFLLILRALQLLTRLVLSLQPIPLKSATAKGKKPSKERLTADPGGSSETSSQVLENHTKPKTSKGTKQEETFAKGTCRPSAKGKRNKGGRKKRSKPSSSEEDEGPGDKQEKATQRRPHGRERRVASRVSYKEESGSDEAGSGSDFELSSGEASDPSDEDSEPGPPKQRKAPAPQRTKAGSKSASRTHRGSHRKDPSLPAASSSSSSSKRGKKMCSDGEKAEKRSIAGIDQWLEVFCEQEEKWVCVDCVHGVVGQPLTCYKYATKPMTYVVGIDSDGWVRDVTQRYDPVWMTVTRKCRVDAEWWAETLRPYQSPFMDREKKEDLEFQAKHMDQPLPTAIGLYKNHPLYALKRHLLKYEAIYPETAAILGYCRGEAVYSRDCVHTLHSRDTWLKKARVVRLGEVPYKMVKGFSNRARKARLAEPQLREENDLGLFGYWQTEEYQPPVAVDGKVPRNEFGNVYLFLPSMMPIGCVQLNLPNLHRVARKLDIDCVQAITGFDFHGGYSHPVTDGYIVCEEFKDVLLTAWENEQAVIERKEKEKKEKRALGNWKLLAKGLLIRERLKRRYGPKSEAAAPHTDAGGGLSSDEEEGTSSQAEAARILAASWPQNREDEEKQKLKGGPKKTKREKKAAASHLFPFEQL
# UniProt Q9H967: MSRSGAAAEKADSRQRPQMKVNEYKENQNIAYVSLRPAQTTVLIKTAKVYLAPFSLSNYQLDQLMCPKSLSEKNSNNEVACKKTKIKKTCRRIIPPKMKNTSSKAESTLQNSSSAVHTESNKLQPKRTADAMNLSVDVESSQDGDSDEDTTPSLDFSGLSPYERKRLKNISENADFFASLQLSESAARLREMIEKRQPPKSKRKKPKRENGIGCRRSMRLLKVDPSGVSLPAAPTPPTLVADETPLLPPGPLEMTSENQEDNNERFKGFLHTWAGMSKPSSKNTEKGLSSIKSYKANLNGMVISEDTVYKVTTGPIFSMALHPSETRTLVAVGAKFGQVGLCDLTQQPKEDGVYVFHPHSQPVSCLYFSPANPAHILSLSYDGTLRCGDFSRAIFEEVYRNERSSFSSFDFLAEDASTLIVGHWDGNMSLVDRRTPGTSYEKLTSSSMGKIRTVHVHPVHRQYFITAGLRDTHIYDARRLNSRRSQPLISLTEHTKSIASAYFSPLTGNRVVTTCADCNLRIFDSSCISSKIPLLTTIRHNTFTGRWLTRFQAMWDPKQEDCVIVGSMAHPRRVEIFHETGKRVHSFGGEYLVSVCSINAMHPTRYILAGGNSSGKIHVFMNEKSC
# UniProt P42768: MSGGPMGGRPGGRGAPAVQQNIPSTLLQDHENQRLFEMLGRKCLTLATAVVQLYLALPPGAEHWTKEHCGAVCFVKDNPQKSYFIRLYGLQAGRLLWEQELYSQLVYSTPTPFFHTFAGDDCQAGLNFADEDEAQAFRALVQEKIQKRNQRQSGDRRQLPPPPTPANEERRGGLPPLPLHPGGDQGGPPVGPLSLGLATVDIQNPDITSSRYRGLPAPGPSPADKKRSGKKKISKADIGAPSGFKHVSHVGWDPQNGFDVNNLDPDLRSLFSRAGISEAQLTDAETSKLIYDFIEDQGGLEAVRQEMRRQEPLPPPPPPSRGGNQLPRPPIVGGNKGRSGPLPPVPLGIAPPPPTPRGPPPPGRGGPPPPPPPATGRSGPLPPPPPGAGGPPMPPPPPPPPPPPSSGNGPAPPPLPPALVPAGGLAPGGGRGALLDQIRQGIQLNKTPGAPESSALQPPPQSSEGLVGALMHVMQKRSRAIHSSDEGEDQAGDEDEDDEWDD
# UniProt Q15906, whole entry, looked up: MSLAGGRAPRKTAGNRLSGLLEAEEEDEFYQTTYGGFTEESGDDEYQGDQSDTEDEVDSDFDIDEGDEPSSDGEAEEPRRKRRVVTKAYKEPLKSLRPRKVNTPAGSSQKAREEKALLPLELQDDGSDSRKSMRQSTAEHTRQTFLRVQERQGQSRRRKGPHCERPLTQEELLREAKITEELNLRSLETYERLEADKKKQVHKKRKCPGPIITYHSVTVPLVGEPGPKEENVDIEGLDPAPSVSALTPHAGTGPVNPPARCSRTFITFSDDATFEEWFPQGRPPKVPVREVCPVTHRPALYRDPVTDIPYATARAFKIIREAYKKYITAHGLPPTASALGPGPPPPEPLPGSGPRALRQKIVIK
# UniProt Q9Y4P8: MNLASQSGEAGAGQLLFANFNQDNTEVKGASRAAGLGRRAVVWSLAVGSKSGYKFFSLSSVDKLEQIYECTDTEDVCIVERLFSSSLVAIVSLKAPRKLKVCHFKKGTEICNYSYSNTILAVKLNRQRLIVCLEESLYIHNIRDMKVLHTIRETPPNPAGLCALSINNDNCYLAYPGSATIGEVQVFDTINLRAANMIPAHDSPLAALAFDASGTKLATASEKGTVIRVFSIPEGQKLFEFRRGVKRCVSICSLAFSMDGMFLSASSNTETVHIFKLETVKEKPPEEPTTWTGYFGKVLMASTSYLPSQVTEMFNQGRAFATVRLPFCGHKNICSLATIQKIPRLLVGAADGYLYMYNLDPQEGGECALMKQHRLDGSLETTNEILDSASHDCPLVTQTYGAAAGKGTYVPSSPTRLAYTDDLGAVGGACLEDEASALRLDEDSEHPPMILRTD
# UniProt Q5MNZ9: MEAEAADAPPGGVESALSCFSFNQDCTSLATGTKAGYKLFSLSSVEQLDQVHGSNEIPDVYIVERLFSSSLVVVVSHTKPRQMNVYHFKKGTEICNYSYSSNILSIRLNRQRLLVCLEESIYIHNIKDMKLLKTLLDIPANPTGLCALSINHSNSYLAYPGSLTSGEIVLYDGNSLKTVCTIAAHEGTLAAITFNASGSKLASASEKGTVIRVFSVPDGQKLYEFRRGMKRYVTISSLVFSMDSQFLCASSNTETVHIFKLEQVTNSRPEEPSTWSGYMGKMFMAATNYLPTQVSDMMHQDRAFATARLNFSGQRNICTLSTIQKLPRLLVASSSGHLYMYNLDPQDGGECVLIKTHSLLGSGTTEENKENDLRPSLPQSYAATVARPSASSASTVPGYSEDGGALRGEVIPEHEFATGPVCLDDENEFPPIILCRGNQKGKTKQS
# UniProt Q8NEZ3: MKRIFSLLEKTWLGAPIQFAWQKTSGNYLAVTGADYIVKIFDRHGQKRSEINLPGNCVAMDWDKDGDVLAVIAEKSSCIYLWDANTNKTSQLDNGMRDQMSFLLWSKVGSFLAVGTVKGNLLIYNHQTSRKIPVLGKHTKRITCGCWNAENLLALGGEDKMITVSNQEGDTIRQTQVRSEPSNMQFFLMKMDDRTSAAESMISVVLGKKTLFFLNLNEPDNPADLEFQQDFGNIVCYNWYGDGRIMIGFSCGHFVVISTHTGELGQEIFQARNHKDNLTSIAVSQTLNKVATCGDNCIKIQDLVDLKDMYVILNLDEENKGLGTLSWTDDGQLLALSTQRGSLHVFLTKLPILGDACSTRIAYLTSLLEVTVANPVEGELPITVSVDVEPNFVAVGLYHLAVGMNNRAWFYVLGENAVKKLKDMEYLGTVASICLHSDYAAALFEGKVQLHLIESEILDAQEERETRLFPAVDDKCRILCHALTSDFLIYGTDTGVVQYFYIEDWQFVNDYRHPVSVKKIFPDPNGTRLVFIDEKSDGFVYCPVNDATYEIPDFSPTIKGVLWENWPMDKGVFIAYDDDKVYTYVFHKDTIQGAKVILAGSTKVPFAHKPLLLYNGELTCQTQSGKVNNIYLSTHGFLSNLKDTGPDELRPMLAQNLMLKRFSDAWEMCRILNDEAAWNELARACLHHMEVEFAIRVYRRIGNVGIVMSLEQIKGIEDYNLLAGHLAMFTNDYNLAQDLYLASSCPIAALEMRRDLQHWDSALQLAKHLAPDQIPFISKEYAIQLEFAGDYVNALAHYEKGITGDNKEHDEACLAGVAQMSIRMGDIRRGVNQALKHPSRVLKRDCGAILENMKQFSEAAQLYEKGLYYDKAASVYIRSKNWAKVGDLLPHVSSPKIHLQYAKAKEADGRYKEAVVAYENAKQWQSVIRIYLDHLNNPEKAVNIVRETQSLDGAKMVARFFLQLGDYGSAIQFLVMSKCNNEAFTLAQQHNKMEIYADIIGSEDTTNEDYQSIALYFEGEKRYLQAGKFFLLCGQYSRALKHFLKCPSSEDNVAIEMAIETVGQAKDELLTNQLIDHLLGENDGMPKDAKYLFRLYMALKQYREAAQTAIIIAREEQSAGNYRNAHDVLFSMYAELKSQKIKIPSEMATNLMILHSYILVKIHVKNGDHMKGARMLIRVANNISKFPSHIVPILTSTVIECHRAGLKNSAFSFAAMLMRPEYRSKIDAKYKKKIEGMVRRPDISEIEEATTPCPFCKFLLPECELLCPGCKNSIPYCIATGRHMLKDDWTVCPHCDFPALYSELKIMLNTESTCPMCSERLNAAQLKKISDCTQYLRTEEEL
# UniProt Q9P2L0: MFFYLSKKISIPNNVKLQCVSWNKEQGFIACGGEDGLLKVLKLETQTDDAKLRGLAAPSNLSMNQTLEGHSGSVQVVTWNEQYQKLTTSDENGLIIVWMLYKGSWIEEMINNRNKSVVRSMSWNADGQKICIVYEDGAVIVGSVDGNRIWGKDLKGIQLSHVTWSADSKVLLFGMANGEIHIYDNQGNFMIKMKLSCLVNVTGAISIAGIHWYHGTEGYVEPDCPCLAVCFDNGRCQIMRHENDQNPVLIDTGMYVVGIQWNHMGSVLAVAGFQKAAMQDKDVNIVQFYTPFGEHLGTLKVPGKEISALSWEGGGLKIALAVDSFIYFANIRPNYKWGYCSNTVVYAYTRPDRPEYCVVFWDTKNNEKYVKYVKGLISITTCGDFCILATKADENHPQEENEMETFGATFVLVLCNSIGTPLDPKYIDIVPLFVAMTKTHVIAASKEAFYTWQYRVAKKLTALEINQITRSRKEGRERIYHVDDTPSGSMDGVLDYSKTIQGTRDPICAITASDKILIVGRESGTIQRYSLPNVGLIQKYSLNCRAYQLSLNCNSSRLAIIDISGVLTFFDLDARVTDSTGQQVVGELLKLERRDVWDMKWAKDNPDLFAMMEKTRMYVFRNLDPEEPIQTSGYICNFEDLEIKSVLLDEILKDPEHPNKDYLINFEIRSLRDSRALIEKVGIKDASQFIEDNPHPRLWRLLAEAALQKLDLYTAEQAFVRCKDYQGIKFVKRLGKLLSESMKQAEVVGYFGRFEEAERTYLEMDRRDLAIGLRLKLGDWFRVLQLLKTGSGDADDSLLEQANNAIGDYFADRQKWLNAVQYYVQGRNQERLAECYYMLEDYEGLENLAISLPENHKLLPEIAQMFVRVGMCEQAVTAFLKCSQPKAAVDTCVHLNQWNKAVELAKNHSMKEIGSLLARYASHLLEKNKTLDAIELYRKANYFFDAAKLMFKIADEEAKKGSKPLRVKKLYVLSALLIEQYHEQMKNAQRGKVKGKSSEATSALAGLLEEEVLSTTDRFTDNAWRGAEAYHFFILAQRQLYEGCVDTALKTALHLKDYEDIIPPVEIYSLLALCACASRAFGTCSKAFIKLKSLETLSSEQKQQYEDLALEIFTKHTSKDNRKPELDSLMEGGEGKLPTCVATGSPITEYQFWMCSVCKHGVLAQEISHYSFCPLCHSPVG
# The other results are listed elsewhere or left out.
# Tests used:
# Assay in all cases: log2 fold change, soluble protein after heating vs DMSO (PISA); higher = thermal stabilisation; K562 lysate, 10 uM; active = over 0.2 and 3.5 SD of the protein, either way, in both replicates (recomputed)
# [1] = compound: CCCS(=O)(=O)Nc1ccc(F)c(C(=O)c2c[nH]c3ncc(Cl)cc23)c1F
# Summary of the method: (§1)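 Pellets of K562 cells were dounce-homogenised in PBS pH 7.4 with 1 mM MgCl2, and the crude extract was held at 1 mg/mL protein for a 30 min treatment with 10 μM compound. Aliquots were heated for 3 min over 48°C-58°C and pooled before NP-40 was added to 0.5% at 4°C. The supernatant from 21,000xg for 90 min was quantified by TMTpro 16plex LC-MS/MS with channel sums equalised. Values are reported from duplicates as log-two fold change in thermal stability relative to solvent controls.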
# barasertib = compound: CCN(CCCOc1ccc2c(Nc3cc(CC(=O)Nc4cccc(F)c4)[nH]n3)ncnc2c1)CCOP(=O)(O)O [barasertib]
# Summary of the method: as §1
# [2] = compound: CC[C@@H]1C(=O)N(C)c2cnc(Nc3ccc(C(=O)NC4CCN(C)CC4)cc3OC)nc2N1C1CCCC1
# Summary of the method: as §1
# volasertib = compound: CC[C@@H]1C(=O)N(C)c2cnc(Nc3ccc(C(=O)N[C@H]4CC[C@H](N5CCN(CC6CC6)CC5)CC4)cc3OC)nc2N1C(C)C [volasertib]
# Summary of the method: as §1
# [3] = compound: CCn1c(C(=O)N(C2CC2)C2CC2)cc2c3c(ncn3C)c(Nc3cc(C)n(C)n3)nc21
# Summary of the method: as §1
# [4] = compound: CCn1cc(-c2ccnc3[nH]c(-c4cccc(CN(C)C)c4)cc23)c(-c2ccc(NC(=O)N(C)C)cc2)n1
# Summary of the method: as §1
# [5] = compound: CN1CCC(CNc2ccc3ncc(-c4cccc(OC(F)(F)F)c4)n3n2)CC1
# Summary of the method: as §1
# saracatinib = compound: CN1CCN(CCOc2cc(OC3CCOCC3)c3c(Nc4c(Cl)ccc5c4OCO5)ncnc3c2)CC1 [saracatinib]
# Summary of the method: as §1
# alvocidib = compound: CN1CC[C@H](c2c(O)cc(O)c3c(=O)cc(-c4ccccc4Cl)oc23)[C@H](O)C1 [alvocidib]
# Summary of the method: as §1
# Tubastatin A = compound: CN1CCc2c(c3ccccc3n2Cc2ccc(C(=O)NO)cc2)C1 [Tubastatin A]
# Summary of the method: as §1
# [6] = compound: CNC(=O)C1=CC=CC=C1NC2=NC(=NC=C2Cl)NC3=C(C=C(C=C3)N4CCOCC4)OC
# Summary of the method: as §1
# [7] = compound: CNc1nc(-c2ccc3c(N)n[nH]c3c2)cc(N2C[C@@H](C(=O)NC3CCCCC3)CC[C@H]2C)n1
# Summary of the method: as §1
# encorafenib = compound: COC(=O)N[C@@H](C)CNc1nccc(-c2cn(C(C)C)nc2-c2cc(Cl)cc(NS(C)(=O)=O)c2F)n1 [encorafenib]
# Summary of the method: as §1
# [8] = compound: COC(=O)[C@H](CCSC)NC(=O)C1=C(C=C(C=C1)NC[C@H](CS)N)C2=CC=CC=C2
# Summary of the method: as §1
# alisertib = compound: COc1cc(Nc2ncc3c(n2)-c2ccc(Cl)cc2C(c2c(F)cccc2OC)=NC3)ccc1C(=O)O [alisertib]
# Summary of the method: as §1
# [9] = compound: COc1cc2nc(-c3cc(F)ccc3O)nc(N[C@@H]3CNC[C@H]3C(C)(C)O)c2cc1OC
# Summary of the method: as §1
# gefitinib = compound: COc1cc2ncnc(Nc3ccc(F)c(Cl)c3)c2cc1OCCCN1CCOCC1 [gefitinib]
# Summary of the method: as §1
# vemurafenib = compound: CCCS(=O)(=O)Nc1ccc(F)c(C(=O)c2c[nH]c3ncc(-c4ccc(Cl)cc4)cc23)c1F [vemurafenib]
# Summary of the method: as §1
# sotrastaurin = compound: CN1CCN(c2nc(C3=C(c4c[nH]c5ccccc45)C(=O)NC3=O)c3ccccc3n2)CC1 [sotrastaurin]
# Summary of the method: as §1
# defactinib = compound: CNC(=O)c1ccc(Nc2ncc(C(F)(F)F)c(NCc3nccnc3N(C)S(C)(=O)=O)n2)cc1 [defactinib]
# Summary of the method: as §1
Target,log2 fold change [1],log2 fold change (barasertib),log2 fold change [2],log2 fold change (volasertib),log2 fold change [3],log2 fold change [4],log2 fold change [5],log2 fold change (saracatinib),log2 fold change (alvocidib),log2 fold change (Tubastatin A),log2 fold change [6],log2 fold change [7],log2 fold change (encorafenib),log2 fold change [8],log2 fold change (alisertib),log2 fold change [9],log2 fold change (gefitinib),log2 fold change (vemurafenib),log2 fold change (sotrastaurin),log2 fold change (defactinib)
XK (UniProt P51811),inactive: 0.221,inactive: 0.08,inactive: 0.207,inactive: 0.013,inactive: -0.045,inactive: 0.096,inactive: 0.037,inactive: -0.022,inactive: -0.006,inactive: -0.008,inactive: -0.048,inactive: 0.145,inactive: -0.08,inactive: 0.005,inactive: -0.161,inactive: 0,inactive: 0.082,–,–,–
WASH6P (UniProt Q9NQA3),–,inactive: -0.104,–,–,–,–,–,–,–,–,–,–,–,–,–,–,–,–,–,–
WSB1 (UniProt Q9Y6I7),–,–,–,–,inactive: 0.105,inactive: 0.078,inactive: 0.08,inactive: -0.159,inactive: 0.184,inactive: -0.014,–,inactive: 0.12,–,–,–,–,–,–,–,–
XPC (UniProt Q01831),inactive: 0.036,inactive: 0.016,inactive: -0.059,inactive: -0.031,inactive: -0.002,inactive: 0.073,inactive: -0.107,inactive: 0,inactive: 0.004,inactive: -0.04,inactive: -0.023,inactive: 0.001,inactive: 0.068,inactive: 0.029,inactive: 0,inactive: 0.066,inactive: 0.039,inactive: -0.067,inactive: -0.033,inactive: 0.046
VWA3B isoform 6 (UniProt Q502W6),inactive: -0.006,inactive: 0.12,inactive: -0.132,inactive: -0.005,inactive: 0.024,inactive: -0.189,inactive: 0.218,inactive: -0.015,inactive: -0.118,inactive: -0.032,inactive: -0.062,inactive: 0.034,inactive: 0.112,inactive: -0.158,inactive: 0.025,inactive: 0.057,inactive: 0.035,–,inactive: 0.02,–
WDR76 (UniProt Q9H967),–,–,inactive: -0.035,–,inactive: 0.14,–,–,inactive: 0.014,–,inactive: -0.093,–,inactive: 0.176,inactive: 0.002,inactive: 0.153,inactive: -0.082,–,inactive: -0.047,–,inactive: -0.064,–
VPS13C (UniProt Q709C8),inactive: 0.028,inactive: 0.12,inactive: 0.112,inactive: -0.017,inactive: -0.01,inactive: 0,inactive: 0.02,inactive: 0.028,inactive: 0.008,inactive: 0.034,inactive: 0.002,inactive: 0.023,inactive: 0.192,inactive: -0.131,inactive: 0.111,inactive: 0.157,inactive: 0.131,inactive: 0.018,inactive: 0.026,inactive: 0.014
WAS (UniProt P42768),–,inactive: 0.046,inactive: 0.043,–,–,inactive: 0.007,inactive: 0.019,inactive: -0.136,inactive: -0.028,–,inactive: 0.032,inactive: 0.365,inactive: 0.004,inactive: 0.08,inactive: -0.041,–,inactive: 0.215,–,–,–
"WDR13, A0A087X091",–,–,–,–,–,inactive: 0.117,inactive: -0.147,–,inactive: 0.036,–,–,–,–,–,–,–,–,inactive: 0.018,–,inactive: 0.088
XIRP2 isoform 8 (UniProt A4UGR9),inactive: 0.043,inactive: 0.007,–,inactive: -0.035,inactive: 0.167,–,–,–,–,inactive: -0.025,–,–,–,–,inactive: 0.095,inactive: -0.056,inactive: 0.152,–,–,–
VPS72 (UniProt Q15906),inactive: -0.139,–,inactive: -0.009,inactive: 0.162,inactive: 0.021,inactive: 0.056,inactive: 0.078,inactive: 0.04,inactive: 0,inactive: 0.028,inactive: 0.041,inactive: -0.02,inactive: -0.016,inactive: -0.134,inactive: -0.058,inactive: -0.017,inactive: -0.108,inactive: 0.054,inactive: 0.024,inactive: -0.078
WIPI2 isoform 6 (UniProt Q9Y4P8),–,inactive: 0.04,–,–,–,inactive: -0.24,inactive: -0.016,–,inactive: -0.015,–,–,–,–,–,–,–,–,–,–,–
WIPI1 (UniProt Q5MNZ9),inactive: 0.044,inactive: 0.04,inactive: 0.119,inactive: -0.014,inactive: -0.043,inactive: -0.079,inactive: 0.022,inactive: 0.025,inactive: -0.046,inactive: 0.013,inactive: 0.036,inactive: 0.099,inactive: -0.009,inactive: 0.029,inactive: -0.189,inactive: 0.008,inactive: -0.017,–,inactive: -0.074,–
WEE1 (UniProt P30291),inactive: 0.056,inactive: 0.015,inactive: -0.25,inactive: -0.032,inactive: -0.077,–,–,inactive: -0.016,–,inactive: -0.194,active: 0.498,inactive: -0.072,inactive: -0.035,inactive: 0.11,inactive: 0.018,inactive: 0.055,inactive: 0.129,inactive: 0.029,inactive: -0.1,inactive: 0.145
WDR19 (UniProt Q8NEZ3),inactive: -0.244,inactive: -0.115,–,inactive: 0.063,–,inactive: 0.032,inactive: 0.05,–,inactive: -0.028,–,–,–,–,–,inactive: 0.09,inactive: 0.071,inactive: -0.046,–,inactive: -0.009,–
WASL (UniProt O00401),inactive: -0.009,inactive: -0.007,inactive: -0.01,inactive: -0.069,inactive: -0.064,inactive: 0.182,inactive: -0.054,inactive: -0.015,inactive: 0.096,inactive: 0.103,inactive: -0.021,inactive: -0.025,inactive: 0.005,inactive: -0.054,inactive: -0.086,inactive: -0.029,inactive: 0.027,inactive: -0.067,inactive: 0.016,inactive: -0.079
"VPS35, A0A1W2PP10",inactive: -0.062,inactive: -0.202,–,inactive: -0.06,–,inactive: -0.123,inactive: 0.085,–,inactive: -0.216,–,inactive: 0.038,–,–,–,inactive: -0.108,inactive: 0.051,inactive: 0.186,–,inactive: 0.152,–
WDR35 (UniProt Q9P2L0),–,–,–,–,inactive: 0.261,–,–,–,–,inactive: 0.031,–,–,–,–,–,–,–,–,–,–
WARS1 (UniProt G3V456),inactive: -0.248,–,–,inactive: 0.178,–,–,–,–,–,–,–,–,–,–,–,inactive: -0.045,–,–,–,–

# At a glance, some entries already given.
Target,log2 fold change [1],log2 fold change (barasertib),log2 fold change [2],log2 fold change (volasertib),log2 fold change [3],log2 fold change [4],log2 fold change [5],log2 fold change (saracatinib),log2 fold change (alvocidib),log2 fold change (Tubastatin A),log2 fold change [6],log2 fold change [7],log2 fold change (encorafenib),log2 fold change [8],log2 fold change (alisertib),log2 fold change [9],log2 fold change (gefitinib),log2 fold change (vemurafenib),log2 fold change (sotrastaurin),log2 fold change (defactinib)
VWA3B isoform 6 (UniProt Q502W6),inactive: -0.006,inactive: 0.12,inactive: -0.132,inactive: -0.005,inactive: 0.024,inactive: -0.189,inactive: 0.218,inactive: -0.015,inactive: -0.118,inactive: -0.032,inactive: -0.062,inactive: 0.034,inactive: 0.112,inactive: -0.158,inactive: 0.025,inactive: 0.057,inactive: 0.035,–,inactive: 0.02,–
WDR76 (UniProt Q9H967),–,–,inactive: -0.035,–,inactive: 0.14,–,–,inactive: 0.014,–,inactive: -0.093,–,inactive: 0.176,inactive: 0.002,inactive: 0.153,inactive: -0.082,–,inactive: -0.047,–,inactive: -0.064,–
